PubChem BioAssay AID1508588 – Peter MacCallum Cancer Centre – 2020
Screen: 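Which gene losses make BRAF-mutant melanoma cells more responsive to vemurafenib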 (primary screen). System: human WM266.4 melanoma cells (BRAF V600 mutant). Reagent: siRNA pool against human genes, 40 nM. Duration: 96 h from transfection to read-out. Treatment: vemurafenib 300 nM (about IC25), added 48 h after transfection, for 48 h; comparison arm got DMSO vehicle only. Read-out: 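Ratios to non-targeting siRNA for cell gain, counted as DAPI nuclei after minus before drug and averaged over two replicates, and for absorbance-read medium lactate per cell; both binned into fold-change classes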. Direction: cell gain with vemurafenib: higher = more cell gain than with non-targeting siRNA; lactate per cell with vemurafenib: higher = more lactate made per cell. Active means: 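a knock-down counts as enhancing when its fold-change classes with vehicle and with vemurafenib, taken together, show a stronger drug effect on cell gain or lactate per cell; exact class pairs not stated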. Meaning of the calls: active = enhances vemurafenib effect; inactive = no enhancement seen.
Here is a random part of about 18,000 deposited reagents. 790 of all reagents (4.4%) were called active. 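Calls rest on a combination of fold-change classes in drug and vehicle arms, not all shown here.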 Reagents against one gene are numbered here. Reagent sequences are not shown.

no.	Gene	reagent	cell gain with vemurafenib	lactate per cell with vemurafenib	call
1	ZNF385D	1	0.56	1.38	inactive
2	DDX53	1	1.04	0.7	inactive
3	TMEM33	1	0.14	3.07	inactive
4	TSGA13	1	0.57	0.43	active
5	NACA	1	0.19	1.96	inactive
6	PRR3	1	0.84	0.49	inactive
7	SMAD3	1	0.56	0.88	inactive
8	TMEM255B	1	-0.09	1.24	inactive
9	STRN4	1	0.86	0.68	inactive
10	IP6K2	1	0.6	1.51	inactive
11	MINDY3	1	0.78	0.68	inactive
12	OR2M7	1	0.32	1.1	inactive
13	C11orf68	1	0.64	0.92	inactive
14	MYPOP	1	0.6	1.62	inactive
15	TPT1P8	1	0.61	0.92	inactive
16	BRINP1	1	0.65	0.98	inactive
17	TAB2	1	0.32	1.08	inactive
18	IFT46	1	0.16	0.4	active
19	SAPCD1	1	0.68	0.93	inactive
20	HS3ST1	1	0.56	1.67	inactive
21	DNTT	1	0.38	0.62	inactive
22	SPON1	1	0.16	0.92	inactive
23	ACVR2A	1	0.95	0.28	inactive
24	ICA1	1	0.02	1.06	active
25	FUT1	1	0.81	1	inactive
26	RUFY4	1	0.19	0.7	active
27	SELE	1	0.45	0.71	inactive
28	NSUN7	1	0.82	0.46	inactive
29	ST14	1	0.55	1.25	inactive
30	LANCL2	1	1.01	0.93	inactive
31	ABCG4	1	0.18	1.47	inactive
32	TLNRD1	1	0.29	1.85	inactive
33	HSDL2	1	0.21	2.41	inactive
34	CHI3L2	1	0.84	0.86	inactive

5 entries from above, showing only “cell gain with vemurafenib”.
ST14 = 0.55
LANCL2 = 1.01
ABCG4 = 0.18
TLNRD1 = 0.29
HSDL2 = 0.21

Next records follow:
no.	Gene	reagent	cell gain with vemurafenib	lactate per cell with vemurafenib	call
35	DNAJA1	1	0.57	0.52	inactive
36	DNAH6	1	0.54	1.65	inactive
37	RBP5	1	0.68	1.08	inactive
38	GCH1	1	0.64	0.56	inactive
39	DDI2	1	0.77	0.8	inactive
40	DDI2	2	0.54	0.85	inactive
41	GAB2	1	0.56	0.74	inactive
42	GJB6	1	0.56	0.82	inactive
43	KRT12	1	0.7	0.52	inactive
44	SOWAHC	1	0.51	1.53	inactive
45	PLEKHF2	1	0.88	0.68	inactive
46	KRT32	1	0.13	1.59	inactive
47	SFMBT2	1	0.76	0.77	inactive
48	TRRAP	1	-0.1	0.78	inactive
49	ACTR5	1	0.74	0.58	inactive
50	ZBTB47	1	0.23	1.1	inactive
51	RNF180	1	0.91	0.68	inactive
52	NOPCHAP1	1	0.95	0.44	inactive
53	ARL6IP6	1	0.55	0.93	inactive
54	RAB6C	1	0.84	0.42	inactive
55	ABHD6	1	0.89	0.68	inactive
56	CISD1	1	1.04	0.83	inactive
57	CLCNKB	1	0.66	0.36	inactive
